In publication PMC7517941:
These are yes or no findings as the source states them, for the method shown. Some results given as binding are weak or reduced against the parent protein; the word gives no strength.

Target: GIP1 (Arabidopsis thaliana) (UniProt Q9M0N8)
Assay: two-hybrid; β-galactosidase filter assay; Y187 cells co-transformed with pGAD10-GIP1 and pGBKT7-GIP1

B1: GIP1 (protein, UniProt Q9M0N8 1-71)
chain: MDEEASRTARESLELVFRMSNILDTGLDRHTLSVLIALCDLGVNPEALATVVKELRRESIPDSVTTTPSIH
binding: binds
